“And” between values parts separate entries of the source, which are not always exact repeats. Equal values may be shown once. The list shows a part of the results. Further columns of the screen follow, without active or inactive calls. Most of these compounds were active or inconclusive in the main read-out, so they are no random draw. Words in brackets tell the shape of the fitted curve; partial curves, single points and poor fits give uncertain potencies.
Experiment: qHTS Assay for Lipid Storage Modulators in Drosophila S3 Cells;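 on cell number change: cells counted by Cell Tracker Red CMTPX staining in the red channel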
Details: BODIPY lipid droplet fluorescence, 18-24 h; for cell number change: measured here: cell count max response, cells fed with added oleic acid
Procedure, shortened: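 Drosophila S3 cells got compounds at several concentrations plus oleic acid (400 uM solution). Laser-scanning cytometry with 488 nm excitation read lipid droplets at 500-530 nm and cells at 575-640 nm. Percent activity was relative to 20 uM Triacsin C.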

[1] = measured here: cell number channel AC50, cells fed with added oleic acid
[2] = measured here: lipid fluorescence (Fed channel) AC50, cells fed with added oleic acid

Structure (SMILES)	cell number change	AC50 [1]	AC50 [2]
C/C(=C/c1oc2ccc(O)cc2c1[N+](=O)[O-])N(C)C	-58.1%	8.2 µM [falling, partial curve]	–
CCC(=O)N1CCc2cc(S(=O)(=O)NCCCN3CCN(Cc4ccccc4)CC3)ccc21	30.5%	9.2 µM [rising, partial curve]	–
COc1ccccc1C(=O)Nc1ccc2c(c1)CCCN2C(=O)c1cccs1	-12.8%	–	4.11 µM [falling, partial curve, poor fit]
COc1ccc(CNC(=O)C(C)Sc2ccc(C)cc2)cc1 (stereo not drawn)	8.87%	–	0.146 µM [rising, full curve]
CCOc1ccccc1CNc1ncnc2ccc(-c3c(C)noc3C)cc12	4.97% and -31.4%	0.00461 µM [falling, full curve, poor fit]	14.6 µM [falling, partial curve, poor fit] and 32.6 µM [falling, single point]
C=CCCC(=O)NC1CCCc2c1cnn2-c1ccccc1F (stereo not drawn)	-55%	20.6 µM [falling, single point]	7.31 µM [falling, partial curve]
COc1ccc2cc(C=O)n(C)c2c1	-4.41%	1.03 µM [rising, single point]	11.6 µM [rising, single point]
CCOCCCNC(=S)N(CCN(C)C)Cc1cc2cc3c(cc2[nH]c1=O)OCCO3	9.09%	0.092 µM [rising, full curve, poor fit]	0.731 µM [falling, full curve, poor fit]
O=C(CCN1C(=O)/C(=C/c2ccccc2F)SC1=S)NCCc1ccc(O)cc1	32%	29.1 µM [rising, single point]	29.1 µM [falling, single point]
Cc1noc(C)c1S(=O)(=O)Nc1ccc(C(=O)NC2CCCCC2C)cc1 (stereo not drawn)	–	6.51 µM [falling, single point]	–
COc1ccc(Cl)cc1NC(=O)CCc1nnc2ccc(N3CCN(C)CC3)nn12	-44.9%	29.1 µM [falling, single point]	0.13 µM [falling, full curve, poor fit]
COc1cc(NC(=O)CSc2nnc3c(C)cc4cc(C)cc(C)c4n23)c(C(=O)O)cc1OC	-40.3%	5.8 µM [falling, partial curve, poor fit]	1.84 µM [falling, full curve]
Cc1ccc(-n2nnnc2SC(C)C(=O)Nc2ccc(Cl)cn2)cc1 (stereo not drawn)	-22.2%	–	29.1 µM [falling, single point]
CCOC(=O)C1=C(CSc2nncn2C)NC(=O)NC1c1cc(OCC)ccc1OCC (stereo not drawn)	-121%	16.4 µM [falling, partial curve, poor fit]	6.51 µM [falling, single point]
Cc1nc(NC(=O)CSc2nnc(N)s2)c(Cl)cc1Cl	–	0.651 µM [rising, partial curve, poor fit]	–
CC(=O)N1CCN=C1SCc1ccccc1F	12.3%	–	29.1 µM [falling, partial curve, poor fit]
CCN(C(=O)COC(=O)c1ccc(OC)c(S(=O)(=O)N2CCCc3ccccc32)c1)C1CCS(=O)(=O)C1 (stereo not drawn)	-81%	14.6 µM [falling, partial curve]	–
Cn1c(SCC(=O)c2c(N)n(C)c(=O)n(C)c2=O)nnc1-c1ccc(F)cc1	1.18%	–	–

Structure (SMILES)	cell number change	AC50 [1]	AC50 [2]
CCN(CC(=O)Nc1ccc(Br)cc1)C(=O)c1nc2nc(C)cc(C)n2n1	-26.4%	–	3.26 µM [rising, single point]
COC(=O)c1ccc(-c2nc3ccccc3[nH]2)cc1	3.49%	–	0.00731 µM [rising, full curve, poor fit]
Cc1ccc(C(=O)O)cc1N1C(=O)c2cccc3c([N+](=O)[O-])ccc(c23)C1=O	-21.3%	–	–
CCc1ccc(NC(=O)C(C)OC(=O)C2CCC(=O)N2)cc1 (stereo not drawn)	6.12%	–	–
COc1cc(OC)c(/C=C2\C(=O)Nc3ccccc32)c(OC)c1	-12.9%	0.291 µM [rising, partial curve, poor fit]	–
CCOc1ccccc1N=C1SC(CC(=O)Nc2ccc(OC)cc2OC)C(=O)N1CCC1=CCCCC1 (stereo not drawn)	–	–	29.1 µM [falling, single point]
CCCCC(=O)Nc1ccc(NC(=O)c2cccnc2)cn1	33.4%	4.61 µM [rising, partial curve]	6.51 µM [rising, single point]
COc1ccc(C(=O)/C=C/c2ccc(OC)c(O)c2)c(F)c1	-15.4%	–	2.31 µM [falling, partial curve]
CCC1(C)CC(CC(=O)O)(c2ccccc2OC)CCO1 (stereo not drawn)	–	–	20.6 µM [falling, partial curve]
Cc1ccc2cc(CN(C(=O)c3ccncc3)C(C)C)c(=O)[nH]c2c1	-14.7%	6.51 µM [rising, single point]	–
COCCn1c(SCC(=O)Nc2cc(C)on2)nc2ccccc21	80.5%	–	1.64 µM [falling, single point]
CC(=O)c1cnc2nc(C(F)(F)F)nn2c1C	2.5%	–	2.31 µM [falling, partial curve]
COc1cc2c(cc1NC(=O)C1CCCO1)oc1ccccc12 (stereo not drawn)	-13.5%	–	1.84 µM [rising, partial curve]
CCOC(=O)C1CC(c2ccc(Cl)cc2)=NNC1=O (stereo not drawn)	-16.4%	–	–
O=c1c(=Nc2ccccc2O)c(=O)c2ccccc12	-48.1%	1.64 µM [falling, partial curve, poor fit]	1.3 µM [falling, full curve]
COc1ccc(Br)cc1C(=O)NC(=S)Nc1cc(-c2nc3ccccc3[nH]2)ccc1C	2.51%	–	–
Cc1ccccc1C(=O)NC(=S)Nc1ccc(S(=O)(=O)N(C)c2ccccc2)cc1	-1.25%	0.326 µM [rising, full curve]	1.46 µM [rising, full curve]
COc1ccc(C(=O)NC2CC2)cc1OC1CCN(Cc2ccc(Cl)cc2)CC1	10.7%	–	–

A second format for part of the listing above:
Structure (SMILES),cell number change,AC50 [1],AC50 [2]
COc1cc(OC)c(/C=C2\C(=O)Nc3ccccc32)c(OC)c1,-12.9%,"0.291 µM [rising, partial curve, poor fit]",–
CCOc1ccccc1N=C1SC(CC(=O)Nc2ccc(OC)cc2OC)C(=O)N1CCC1=CCCCC1 (stereo not drawn),–,–,"29.1 µM [falling, single point]"
O=c1c(=Nc2ccccc2O)c(=O)c2ccccc12,-48.1%,"1.64 µM [falling, partial curve, poor fit]","1.3 µM [falling, full curve]"

— PubChem BioAssay AID2685 (National Center for Advancing Translational Sciences (NCATS), 2010)
